{"source": "PubChem BioAssay AID1224830 – NIAID, 2016", "screen": "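Genes whose knock-down alters the TNF-alpha reporter response to LPS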 (primary screen)", "cells": "human THP-1 monocytic leukaemia cells, TNF dual-luciferase reporter clone, PMA-differentiated to macrophage-like cells", "knock-down reagent": "siRNA pool against human genes, 50 nM", "timing": "LPS for 4 h, given about 3 days after siRNA transfection", "conditions": "bacterial LPS (TLR4 ligand), 10 ng/ml", "measured": "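Ratio of firefly to renilla light, scaled to the plate median and expressed as a robust z-score per replicate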", "direction": "TNF reporter robust z-score: higher = stronger TNF reporter response to LPS", "call rule": "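a well is active when its z-score exceeds 2.8 or falls below -1.5; control wells carry no call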", "note": "The whole screen tested about 18,000 reagents; shown is a part drawn at random. Over the whole deposit, about 2,900 (16%) got an active call. 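Calls are made per well; low scores hint the gene aids the LPS response, high scores that it dampens it.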 Repeated entries: four replicate wells of each siRNA pool."}
{"target": "ADSL (GeneID 158)", "TNF reporter robust z-score": 0.01, "Outcome": "inactive"}
{"target": "ADSL (GeneID 158)", "TNF reporter robust z-score": -0.41, "Outcome": "inactive"}
{"target": "ADSL (GeneID 158)", "TNF reporter robust z-score": 0.03, "Outcome": "inactive"}
{"target": "ADSL (GeneID 158)", "TNF reporter robust z-score": 0.82, "Outcome": "inactive"}
{"target": "COG3 (GeneID 83548)", "TNF reporter robust z-score": 0.96, "Outcome": "inactive"}
{"target": "COG3 (GeneID 83548)", "TNF reporter robust z-score": 0.81, "Outcome": "inactive"}
{"target": "COG3 (GeneID 83548)", "TNF reporter robust z-score": 1.83, "Outcome": "inactive"}
{"target": "COG3 (GeneID 83548)", "TNF reporter robust z-score": 1.71, "Outcome": "inactive"}
{"target": "FASTKD3 (GeneID 79072)", "TNF reporter robust z-score": 0.14, "Outcome": "inactive"}
{"target": "FASTKD3 (GeneID 79072)", "TNF reporter robust z-score": 0.95, "Outcome": "inactive"}
{"target": "FASTKD3 (GeneID 79072)", "TNF reporter robust z-score": 0.57, "Outcome": "inactive"}
{"target": "FASTKD3 (GeneID 79072)", "TNF reporter robust z-score": -0.81, "Outcome": "inactive"}
{"target": "REST (GeneID 5978)", "TNF reporter robust z-score": 0.75, "Outcome": "inactive"}
{"target": "REST (GeneID 5978)", "TNF reporter robust z-score": 0.76, "Outcome": "inactive"}
{"target": "REST (GeneID 5978)", "TNF reporter robust z-score": 0.56, "Outcome": "inactive"}
{"target": "REST (GeneID 5978)", "TNF reporter robust z-score": -0.15, "Outcome": "inactive"}
{"target": "FLT4 (GeneID 2324)", "TNF reporter robust z-score": -1.24, "Outcome": "inactive"}
{"target": "FLT4 (GeneID 2324)", "TNF reporter robust z-score": -1.68, "Outcome": "active"}
{"target": "FLT4 (GeneID 2324)", "TNF reporter robust z-score": -1.52, "Outcome": "active"}
{"target": "FLT4 (GeneID 2324)", "TNF reporter robust z-score": -1.37, "Outcome": "inactive"}
{"target": "LYST (GeneID 1130)", "TNF reporter robust z-score": -0.18, "Outcome": "inactive"}
{"target": "LYST (GeneID 1130)", "TNF reporter robust z-score": -0.15, "Outcome": "inactive"}
{"target": "LYST (GeneID 1130)", "TNF reporter robust z-score": 0.32, "Outcome": "inactive"}
{"target": "LYST (GeneID 1130)", "TNF reporter robust z-score": 0.35, "Outcome": "inactive"}
{"target": "KIF23 (GeneID 9493)", "TNF reporter robust z-score": -0.41, "Outcome": "inactive"}
{"target": "KIF23 (GeneID 9493)", "TNF reporter robust z-score": 1.34, "Outcome": "inactive"}
{"target": "KIF23 (GeneID 9493)", "TNF reporter robust z-score": 0.24, "Outcome": "inactive"}
{"target": "KIF23 (GeneID 9493)", "TNF reporter robust z-score": 0.71, "Outcome": "inactive"}
{"target": "CILP (GeneID 8483)", "TNF reporter robust z-score": 0.26, "Outcome": "inactive"}
{"target": "CILP (GeneID 8483)", "TNF reporter robust z-score": -0.33, "Outcome": "inactive"}
{"target": "CILP (GeneID 8483)", "TNF reporter robust z-score": -0.83, "Outcome": "inactive"}
{"target": "CILP (GeneID 8483)", "TNF reporter robust z-score": 0.75, "Outcome": "inactive"}
{"target": "RBMY1B (GeneID 378948)", "TNF reporter robust z-score": 0.56, "Outcome": "inactive"}
{"target": "RBMY1B (GeneID 378948)", "TNF reporter robust z-score": 1.95, "Outcome": "inactive"}
{"target": "RBMY1B (GeneID 378948)", "TNF reporter robust z-score": 0.45, "Outcome": "inactive"}
{"target": "RBMY1B (GeneID 378948)", "TNF reporter robust z-score": 1.49, "Outcome": "inactive"}
{"target": "TREML4 (GeneID 285852)", "TNF reporter robust z-score": 0.18, "Outcome": "inactive"}
{"target": "TREML4 (GeneID 285852)", "TNF reporter robust z-score": -0.69, "Outcome": "inactive"}
{"target": "TREML4 (GeneID 285852)", "TNF reporter robust z-score": -0.86, "Outcome": "inactive"}
{"target": "TREML4 (GeneID 285852)", "TNF reporter robust z-score": -1.01, "Outcome": "inactive"}
{"target": "YWHAQ (GeneID 10971)", "TNF reporter robust z-score": 0.57, "Outcome": "inactive"}
{"target": "YWHAQ (GeneID 10971)", "TNF reporter robust z-score": 0.25, "Outcome": "inactive"}
{"target": "YWHAQ (GeneID 10971)", "TNF reporter robust z-score": 0.26, "Outcome": "inactive"}
{"target": "YWHAQ (GeneID 10971)", "TNF reporter robust z-score": 0.41, "Outcome": "inactive"}
{"target": "SSH2 (GeneID 85464)", "TNF reporter robust z-score": -0.27, "Outcome": "inactive"}
{"target": "SSH2 (GeneID 85464)", "TNF reporter robust z-score": 0.4, "Outcome": "inactive"}
{"target": "SSH2 (GeneID 85464)", "TNF reporter robust z-score": 0.15, "Outcome": "inactive"}
{"target": "SSH2 (GeneID 85464)", "TNF reporter robust z-score": -0.67, "Outcome": "inactive"}
